PubChem BioAssay AID493246 – Drosophila RNAi Screening Center – 2011
The deposit covers about 21,000 reagents; shown is a random part of those that have a named target and a result. Of all reagents, 429 (2%) are marked active. 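Values are raw and not normalised between plates; calls rest on per-plate z-scores that were not deposited.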 The numbers tell different reagents against one gene apart. Reagent sequences are not shown. The record does not give: the amount of reagent, the time to read-out.

Assay: 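Genes fly cells need to grow and stay alive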 (primary screen)
Cells: Drosophila Kc and S2R+ cells
Knock-down reagent: long dsRNA against Drosophila genes
Measured: 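Raw, unnormalised count of remaining cells in each well; per-plate z-scores of cell number underlie the calls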
Scale: Kc cell number and S2R+ cell number: higher = more cells remaining
Hit rule: 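Counted as a hit if cell number falls by a z-score of at least 3 within its plate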

no.	Target gene	dsRNA no.	Kc cell number, rep 1	Kc cell number, rep 2	S2R+ cell number, rep 1	S2R+ cell number, rep 2	activity call
1	Lamtor5 (GeneID 31137)	1	1.51e6	1.55e6	1.07e6	1.18e6	inactive
2	CG3356 (GeneID 37876)	1	1.34e6	1.44e6	1.23e6	1.21e6	inactive
3	Edg78E (GeneID 40354)	1	1.48e6	1.55e6	1.26e6	1.41e6	inactive
4	CG8252 (GeneID 35884)	1	1.43e6	1.47e6	1.25e6	1.31e6	inactive
5	Ggamma30A (GeneID 45234)	1	1.42e6	1.53e6	1.20e6	1.34e6	inactive
6	Ggamma30A (GeneID 45234)	2	1.43e6	1.48e6	1.18e6	1.26e6	inactive
7	Rcd1 (GeneID 36560)	1	1.20e6	1.31e6	1.01e6	1.09e6	inactive
8	ATPsynepsilonL (GeneID 326144)	1	1.54e6	1.51e6	1.15e6	1.22e6	inactive
9	CG12863 (GeneID 36623)	1	1.57e6	1.59e6	1.18e6	1.30e6	inactive
10	htl (GeneID 42160)	1	1.55e6	1.58e6	1.26e6	1.30e6	inactive
11	CG9948 (GeneID 38757)	1	1.47e6	1.45e6	1.16e6	1.17e6	inactive

Limited to “Kc cell number, rep 1”, for 3 of the entries above:
Lamtor5 (GeneID 31137): 1.51e6
CG3356 (GeneID 37876): 1.34e6
Edg78E (GeneID 40354): 1.48e6

Continued.
no.	Target gene	dsRNA no.	Kc cell number, rep 1	Kc cell number, rep 2	S2R+ cell number, rep 1	S2R+ cell number, rep 2	activity call
12	CG31898 (GeneID 319012)	1	1.40e6	1.49e6	9.71e5	1.11e6	inactive
13	Zwilch (GeneID 59247)	1	1.56e6	1.63e6	1.13e6	1.17e6	inactive
14	ND-B12 (GeneID 37466)	1	1.36e6	1.46e6	1.18e6	3.45e5	inactive
15	dlg1 (GeneID 32083)	1	1.17e6	1.14e6	7.85e5	9.08e5	inactive
16	dlg1 (GeneID 32083)	2	1.48e6	1.60e6	1.08e6	1.20e6	inactive
17	dlg1 (GeneID 32083)	3	1.63e6	1.64e6	1.04e6	1.12e6	inactive
18	dlg1 (GeneID 32083)	4	5.91e5		8.06e5		inactive
19	PEK (GeneID 40653)	1	1.42e6	1.52e6	1.17e6	1.20e6	inactive
20	beat-Ib (GeneID 34939)	1	1.59e6	1.63e6	1.26e6	1.43e6	inactive
21	Kif3C (GeneID 43820)	1	1.63e6	1.62e6	1.09e6	1.22e6	inactive
22	Kif3C (GeneID 43820)	2	1.78e6	1.75e6	1.15e6	1.23e6	inactive
23	S-Lap3 (GeneID 326187)	1	1.37e6	1.43e6	1.22e6	1.18e6	inactive
24	ca (GeneID 43518)	1	5.46e5		8.58e5		inactive
25	ca (GeneID 43518)	2	1.50e6	1.56e6	9.73e5	1.15e6	inactive
26	ca (GeneID 43518)	3	1.48e6	1.50e6	1.03e6	1.16e6	inactive
